Laboratory results taken from patent US20090197798A1 (NATIONAL TAIWAN UNIVERSITY, published 2009).
These are yes or no findings as the source states them, for the method shown. Some entries that bind do so weakly or less than the wild type. Tags and fused reporters may be left off the sequences shown.

Key:
[1] = target: T1, Recombinant soluble NRP1 (sNRP1) protein containing His6 and c-Myc domain tags (human) (UniProt O14786); assay: phage display biopanning on plate-coated sNRP1, four rounds
T1 sequence (looked up): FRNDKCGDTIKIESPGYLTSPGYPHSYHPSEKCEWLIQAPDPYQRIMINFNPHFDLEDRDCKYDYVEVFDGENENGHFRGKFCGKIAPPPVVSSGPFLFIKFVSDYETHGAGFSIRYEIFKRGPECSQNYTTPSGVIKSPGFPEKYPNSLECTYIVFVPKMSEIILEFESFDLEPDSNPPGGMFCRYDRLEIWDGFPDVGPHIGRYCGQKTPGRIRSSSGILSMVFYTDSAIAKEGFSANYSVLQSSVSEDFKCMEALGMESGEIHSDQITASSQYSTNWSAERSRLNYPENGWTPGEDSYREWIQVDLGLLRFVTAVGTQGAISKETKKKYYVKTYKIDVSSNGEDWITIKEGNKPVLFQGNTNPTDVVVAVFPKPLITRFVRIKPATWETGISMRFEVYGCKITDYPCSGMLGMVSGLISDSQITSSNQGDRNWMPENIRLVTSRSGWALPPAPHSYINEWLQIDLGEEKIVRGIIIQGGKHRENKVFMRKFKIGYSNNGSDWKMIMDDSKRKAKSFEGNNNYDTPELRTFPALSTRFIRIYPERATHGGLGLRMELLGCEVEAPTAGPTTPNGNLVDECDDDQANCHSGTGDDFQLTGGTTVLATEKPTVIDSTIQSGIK

[2] = target: T1, Recombinant soluble NRP1 (sNRP1) protein containing His6 and c-Myc domain tags (human); assay: figure legend (FIG. 5)
[3] = target: T1, Recombinant soluble NRP1 (sNRP1) protein containing His6 and c-Myc domain tags (human); assay: SPR (Biacore)

Binder	binding [1]	binding [2]	binding [3]
RSRRIRL [phage-displayed peptide 4-5]	binds		
CRSRRIRLC (cyclic peptide; cysteine-linked cyclic conformation) [cyclic peptide DG2 (…)]		binds	
RRSRQSR [phage-displayed peptide 4-43]	binds		
RRPRMLT [phage-displayed peptide 4-1]	binds		
HSRRMRK [phage-displayed peptide 4-3]	binds		
HKRRIRQ [phage-displayed peptide 4-53]	binds		
QLRRQRR [phage-displayed peptide 4-2]	binds		
MKRRPRK [phage-displayed peptide 4-9]	binds		
CRRPRMLTC (cyclic peptide; cysteine-linked cyclic conformation) [cyclic peptide DG1 (…)]		binds	binds
PIRRQRL [phage-displayed peptide 4-40]	binds		
RRLRRRR [phage-displayed peptide 4-28]	binds		
